From patent US7566808B2, “Management of ophthalmologic disorders, including macular degeneration” (President and Fellows of Harvard College, priority 2004, dated 2009) come the findings set out here.

In this data set the test system is A2E formation from all-trans-retinal and ethanolamine. The data set is described as follows: In vitro A2E formation in the presence of aromatic amine. Here is the method: 100 mg (355 μmoles) of all-trans-retinal was dissolved in 3 mL followed by the addition of 9.5 μL of glacial acetic acid 9.5 μL of ethanolamine (155 μmoles). This solution was aliquoted into 300 μL fractions. 3-aminoethylbenzoate (15.5 μmoles) was added to the samples at 0, 2, 3.75, 14, 16.25, 18.0833 19.917 23.75 and 48 hrs. […] The solutions were shaken at room temperature for 48 hrs. The solutions were then kept at −80° C. and 15 μL was diluted to 250 μL (methanol). The solutions (15 μL) were then analyzed on a reverse phase (C18-5 μm-4.6 mm×150 mm) column on a linear gradient 85%-96% methanol/water and UV detector at 430 nm to determine the amount of A2E formation. The percent A2E formation was compared to A2E formation at 48 h in the absence of aromatic amine.

Take `CCOC(=O)c1cccc(N)c1` [3-aminoethylbenzoate, ethyl 3-aminobenzoate]: the “A2E Area under the Curve (HPLC, 430 nm)” value by setting is: (amine added at 0 hrs) 422.5; (amine added at 2 hrs) 920; (amine added at 3.75 hrs) 818.5; (amine added at 14 hrs) 2094; (amine added at 16.25 hrs) 2043; (amine added at 18.0833 hrs) 2515. Moreover, the “A2E Area under the Curve (HPLC, 430 nm)” value amounted to 2934 (amine added at 19.91667 hrs), 2382 (amine added at 23.75 hrs) and 10613 (amine added at 48 hrs).
